Patent US20260132217A1 (UNIVERSITE D AIX MARSEILLE, published 2026)
Results are given in words; binding and its absence hold for the method and conditions named. Some entries that bind do so weakly or less than the wild type.

Target: T1, soluble CD146 (sCD146), recombinant human sCD146 (human) (UniProt P43121)
T1 sequence (FITC label in the cell-binding experiments (sCD146-FITC); site not stated, looked up): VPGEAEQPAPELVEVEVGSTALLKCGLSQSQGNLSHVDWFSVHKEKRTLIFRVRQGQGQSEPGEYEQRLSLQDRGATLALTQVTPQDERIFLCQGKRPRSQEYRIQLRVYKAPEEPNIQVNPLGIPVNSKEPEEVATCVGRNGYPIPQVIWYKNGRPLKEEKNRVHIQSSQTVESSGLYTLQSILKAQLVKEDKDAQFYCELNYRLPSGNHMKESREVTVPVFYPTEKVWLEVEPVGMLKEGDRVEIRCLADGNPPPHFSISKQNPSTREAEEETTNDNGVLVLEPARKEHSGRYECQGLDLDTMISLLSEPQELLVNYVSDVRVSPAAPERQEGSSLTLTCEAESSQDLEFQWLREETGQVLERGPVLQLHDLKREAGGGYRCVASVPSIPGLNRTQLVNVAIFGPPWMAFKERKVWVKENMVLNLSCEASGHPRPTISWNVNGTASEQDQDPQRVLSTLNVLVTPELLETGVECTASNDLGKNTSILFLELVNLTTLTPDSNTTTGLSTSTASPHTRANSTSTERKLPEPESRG
Assay: in-house ELISA, inhibition of the sCD146-integrin αvβ3 interaction

binding: binds
B1: mucizumab, humanized IgG1 monoclonal anti-sCD146 antibody (antibody, V domains shown)
VH: QVKLVESGGGVVQPGRSLTLSCAASGFTFSDYGMHWIRQAPGKGLEWIAMIYYDSSKMYYADTVKGRFTISRDNSKNTLYLQMNSLRAEDTAVYYCAAFQFDYWGQGTMVTVSS
VL: EIVLTQSPDFQSVTPKEKVTITCRASQGISTSIYWYQQKPDQSPKLLIKFASQSISGVPSRFSGSGSGTDFTLTINRVEAEDAATYYCQQSYNLPYTFGAGTKLEIKR
